Data as given in PubChem BioAssay AID1671190 (National Center for Advancing Translational Sciences (NCATS), 2021).
The campaign covered roughly 580,000 compounds. About 6,100 (1.1%) were called active. Inconclusive means that the source gave no clear call. Such entries were picked first, then a sample of the others. The call rests on the fitted dose curve; in most records, active means well fitted inhibition curve with a large enough effect; inconclusive means small, poorly fitted or top-dose-only effect, or another doubt; inactive means no such curve, though single readings can be large or run the other way. Potencies beside an inconclusive call are fits to weak or partial responses and may not hold up.

Amino acid sequences for entries named in this document (tags omitted). A change or cut given only in a name is not applied to a line headed by its entry.
UniProt P18054: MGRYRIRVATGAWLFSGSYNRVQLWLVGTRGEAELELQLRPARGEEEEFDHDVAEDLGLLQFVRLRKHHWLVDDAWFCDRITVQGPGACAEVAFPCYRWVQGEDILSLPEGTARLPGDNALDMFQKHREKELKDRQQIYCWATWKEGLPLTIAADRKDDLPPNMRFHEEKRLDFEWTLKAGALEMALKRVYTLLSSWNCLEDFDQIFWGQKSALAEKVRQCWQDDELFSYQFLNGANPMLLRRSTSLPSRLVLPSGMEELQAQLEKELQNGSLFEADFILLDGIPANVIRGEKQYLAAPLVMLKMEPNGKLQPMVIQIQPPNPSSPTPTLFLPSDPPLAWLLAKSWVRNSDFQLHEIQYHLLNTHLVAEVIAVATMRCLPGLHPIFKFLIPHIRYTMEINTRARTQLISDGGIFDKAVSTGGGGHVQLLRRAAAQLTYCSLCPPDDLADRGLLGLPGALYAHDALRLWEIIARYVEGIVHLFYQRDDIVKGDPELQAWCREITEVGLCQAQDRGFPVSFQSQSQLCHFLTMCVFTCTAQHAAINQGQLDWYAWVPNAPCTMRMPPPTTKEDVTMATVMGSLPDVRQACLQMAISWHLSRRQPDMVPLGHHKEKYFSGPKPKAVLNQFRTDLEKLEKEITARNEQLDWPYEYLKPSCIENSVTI

biological target: Polyunsaturated fatty acid lipoxygenase ALOX12 (Homo sapiens) (UniProt P18054); assay: Primary qHTS assay for inhibitors of human arachidonate 12S-lipoxygenase (ALOX12): Round 2; conditions: purified 12hLO, xylenol orange hydroperoxide absorbance; activity change, negative = inhibition: at 108 µM (top of the series) unless noted
Summary of the method: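 Purified human 12hLO at 150 nM in 25 mM Hepes, 0.01% Triton X-100, pH 7.0, preincubated 15 min at room temperature with compound. Reaction started with 40 uM arachidonic acid, 30 min at room temperature. Hydroperoxide measured by Fe-xylenol orange, 573/405 nm absorbance ratio.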
On the % scale 0 is the no-effect control and ±100 the full control effect; potency means the concentration at half of the fitted maximal effect.

Structure (SMILES)	Potency	activity change, negative = inhibition
CCOC(=O)n1c(=O)n(Cc2ccc(F)cc2)c2ccccc21	inconclusive: 112 µM [inhibitor, partial curve, poor fit]	
COc1cc(/C=C2\SC(=Nc3cccnc3)NC2=O)cc(OC)c1OC	inactive	
OC(CNCc1ccccc1C(F)(F)F)C(F)(F)F (centres undefined)	inconclusive: 70.8 µM [inhibitor, partial curve, poor fit]	
N=C(N)SCc1cccc(F)c1	inactive	
O=C(NC[C@H]1OC[C@@H](NC2CCOCC2)[C@@H]1O)c1ccccc1	inconclusive: 89.1 µM [inhibitor, partial curve, poor fit]	
CC(C)CCn1c(CN2CCN(c3ccccc3F)CC2)nc2c1c(=O)n(C)c(=O)n2C	inactive	
NC1(C(=O)N2CCCC(N3CCN(Cc4ccc5c(c4)OCO5)CC3)C2)CC1 (centres undefined)	inconclusive: 11.2 µM [inhibitor, full curve]	
O=C1Nc2ccccc2CC12CN(CC1CCOCC1)C2		inactive: 13% [at 12.5 µM]
COC(=O)C1=C(C)N(Cc2ccccc2C(F)(F)F)C(=NCc2ccc3c(c2)OCO3)NC1c1ccc(F)cc1 (centres undefined)	inconclusive: 79.4 µM [inhibitor, partial curve, poor fit]	
Cc1cccc(-n2c(C)nc3cc(C(=O)NCc4ccc(F)cc4)ccc32)c1	inactive	
COc1ccccc1C1CCN(C(=O)c2cnn(-c3ccccc3)c2C)CC1	inconclusive: 126 µM [inhibitor, single point]	
COc1cc(-c2ncc3ccccn23)cc(OC)c1OC	inconclusive: 0.398 µM [inhibitor, full curve, poor fit]	
C=CC(C)N1C(=O)S/C(=C\c2ccc(N3CCOCC3)cc2C)C1=O (centres undefined)	inactive	
Cc1c(C(=O)O/N=C(\N)c2ccccn2)cccc1[N+](=O)[O-]	inconclusive: 89.1 µM [inhibitor, partial curve, poor fit]	
Cc1ccc(OCC(O)CN2CCc3ccccc3C2)c(C)c1 (centres undefined)	inactive	
O=C(COc1ccc(F)cc1)NCc1ccc2c(c1)CCN2C(=O)c1ccccc1	inactive	
CCNC(=O)O/N=C1\CCCCC1c1ccc([N+](=O)[O-])cc1[N+](=O)[O-] (centres undefined)	inconclusive: 44.7 µM [inhibitor, partial curve, poor fit]	
Cc1ccc(Nc2ccc(C(=O)O)cc2N)cc1	inconclusive: 44.7 µM [inhibitor, partial curve, poor fit]	
CCc1ccccc1NC(=O)c1sc2nc3c(cc2c1N)CN(C)CC3	inconclusive: 3.16 µM [inhibitor, full curve, poor fit]	

Sorted by SMILES length (descending): 3 of the compounds above
Structure (SMILES)	Potency	activity change, negative = inhibition
NC1(C(=O)N2CCCC(N3CCN(Cc4ccc5c(c4)OCO5)CC3)C2)CC1 (centres undefined)	inconclusive: 11.2 µM [inhibitor, full curve]	
O=C(COc1ccc(F)cc1)NCc1ccc2c(c1)CCN2C(=O)c1ccccc1	inactive	
COc1cc(-c2ncc3ccccn23)cc(OC)c1OC	inconclusive: 0.398 µM [inhibitor, full curve, poor fit]	
